Experimental data: PubChem BioAssay AID493246 (Drosophila RNAi Screening Center, 2011)
The deposit covers about 21,000 reagents; below is a random part of those that have a named target and a result. Over the whole deposit, 429 (2%) are marked active. 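Values are raw and not normalised between plates; calls rest on per-plate z-scores that were not deposited.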 Reagents against one gene are numbered here. Names joined by + are all predicted targets of the reagent. The record does not give: the amount of reagent, the time to read-out.

Assay: 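Genes fly cells need to grow and stay alive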 (primary screen)
Cell system: Drosophila Kc and S2R+ cells
Reagent: long dsRNA against Drosophila genes
Detection: 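Cell number per well after knock-down, printed as raw plate values; calls were based on per-plate z-scores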
Direction: Kc cell number and S2R+ cell number: higher = more cells remaining
Hit rule: 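Active when the per-plate z-score of cell number is 3 or more in the direction of fewer cells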

CG3702: Kc cell number, rep 1 = 1.29e6; Kc cell number, rep 2 = 1.33e6; S2R+ cell number, rep 1 = 1.07e6; S2R+ cell number, rep 2 = 1.24e6; Call = inactive
dpr1 (defective proboscis extension response 1) #1: Kc cell number, rep 1 = 6.25e5; S2R+ cell number, rep 1 = 7.65e5; Call = inactive
dpr1 (defective proboscis extension response 1) #2: Kc cell number, rep 1 = 1.26e6; Kc cell number, rep 2 = 1.35e6; S2R+ cell number, rep 1 = 1.01e6; S2R+ cell number, rep 2 = 1.40e6; Call = inactive
Debcl (Death executioner Bcl-2): Kc cell number, rep 1 = 1.39e6; Kc cell number, rep 2 = 1.44e6; S2R+ cell number, rep 1 = 1.18e6; S2R+ cell number, rep 2 = 1.23e6; Call = inactive
CR18275 (pseudo): Kc cell number, rep 1 = 1.58e6; Kc cell number, rep 2 = 1.59e6; S2R+ cell number, rep 1 = 1.03e6; S2R+ cell number, rep 2 = 1.14e6; Call = inactive
CG33523: Kc cell number, rep 1 = 1.60e6; Kc cell number, rep 2 = 1.51e6; S2R+ cell number, rep 1 = 1.09e6; S2R+ cell number, rep 2 = 1.22e6; Call = inactive
ppk30 (pickpocket 30): Kc cell number, rep 1 = 1.43e6; Kc cell number, rep 2 = 1.44e6; S2R+ cell number, rep 1 = 9.88e5; S2R+ cell number, rep 2 = 1.10e6; Call = inactive

Not a retest: an excerpt of the list.
dpr1 (defective proboscis extension response 1) #2: Kc cell number, rep 1 = 1.26e6; Kc cell number, rep 2 = 1.35e6; S2R+ cell number, rep 1 = 1.01e6; S2R+ cell number, rep 2 = 1.40e6; Call = inactive
Debcl (Death executioner Bcl-2): Kc cell number, rep 1 = 1.39e6; Kc cell number, rep 2 = 1.44e6; S2R+ cell number, rep 1 = 1.18e6; S2R+ cell number, rep 2 = 1.23e6; Call = inactive

The list goes on:
nebu (nebulosa) #1: Kc cell number, rep 1 = 1.25e6; Kc cell number, rep 2 = 1.30e6; S2R+ cell number, rep 1 = 1.28e6; S2R+ cell number, rep 2 = 1.22e6; Call = inactive
nebu (nebulosa) #2: Kc cell number, rep 1 = 1.62e6; Kc cell number, rep 2 = 1.57e6; S2R+ cell number, rep 1 = 1.36e6; S2R+ cell number, rep 2 = 1.47e6; Call = inactive
CG15531: Kc cell number, rep 1 = 1.39e6; Kc cell number, rep 2 = 1.39e6; S2R+ cell number, rep 1 = 1.01e6; S2R+ cell number, rep 2 = 1.14e6; Call = inactive
CG15563: Kc cell number, rep 1 = 1.70e6; Kc cell number, rep 2 = 1.80e6; S2R+ cell number, rep 1 = 1.12e6; S2R+ cell number, rep 2 = 1.23e6; Call = inactive
CG10916: Kc cell number, rep 1 = 1.42e6; Kc cell number, rep 2 = 1.40e6; S2R+ cell number, rep 1 = 1.18e6; S2R+ cell number, rep 2 = 1.24e6; Call = inactive
Kots (Kotsubu): Kc cell number, rep 1 = 1.54e6; Kc cell number, rep 2 = 1.56e6; S2R+ cell number, rep 1 = 1.20e6; S2R+ cell number, rep 2 = 1.23e6; Call = inactive
CG34370 #1: Kc cell number, rep 1 = 5.71e5; S2R+ cell number, rep 1 = 8.86e5; Call = inactive
CG34370 #2: Kc cell number, rep 1 = 1.50e6; Kc cell number, rep 2 = 1.60e6; S2R+ cell number, rep 1 = 1.36e6; S2R+ cell number, rep 2 = 3.91e5; Call = inactive
CG34370 #3: Kc cell number, rep 1 = 1.51e6; Kc cell number, rep 2 = 1.65e6; S2R+ cell number, rep 1 = 1.35e6; S2R+ cell number, rep 2 = 4.00e5; Call = inactive
CG34370 #4: Kc cell number, rep 1 = 1.47e6; Kc cell number, rep 2 = 1.61e6; S2R+ cell number, rep 1 = 1.30e6; S2R+ cell number, rep 2 = 4.28e5; Call = inactive
CG14102: Kc cell number, rep 1 = 1.30e6; Kc cell number, rep 2 = 1.36e6; S2R+ cell number, rep 1 = 1.26e6; S2R+ cell number, rep 2 = 1.34e6; Call = inactive
CG2006 + Spase12: Kc cell number, rep 1 = 1.51e6; Kc cell number, rep 2 = 1.53e6; S2R+ cell number, rep 1 = 9.92e5; S2R+ cell number, rep 2 = 1.14e6; Call = inactive
CG7548: Kc cell number, rep 1 = 1.25e6; Kc cell number, rep 2 = 1.17e6; S2R+ cell number, rep 1 = 1.17e6; S2R+ cell number, rep 2 = 1.17e6; Call = inactive
slo (slowpoke): Kc cell number, rep 1 = 1.56e6; Kc cell number, rep 2 = 1.56e6; S2R+ cell number, rep 1 = 1.28e6; S2R+ cell number, rep 2 = 1.30e6; Call = inactive
